Data as given in US11414454B2, “Compositions, methods, and systems for affinity-based protein identification and purification” (Auctus Biologies, Inc., priority 2017, dated 2022).
No end group written: not given here.

system: RPtag (large); experiment: Association/dissociation kinetics of RPtag (small) peptides with RPtag (large) by fluorescence anisotropy; design: species or system Thermoanaerobacter tengcongensis; conditions: equilibrium non-binding S / binding S* state
Procedure: Panel a depicts representative association rate kinetics traces varying native RPtag small. Rhodamine labeled RPtag small at the indicated concentration was incubated with unlabeled RPtag large and the association measured by fluorescence anisotropy. L-S complex concentration was calculated by the equation (r−rmin)/(rmax−rmin)*[S] where r is the measured anisotropy, rmin is the anisotropy in the absence of any RPtag large, rmax is the anisotropy measured in the presence of at saturating RPtag large, and [S] is the total concentration of RPtag small used in the experiment. […] Dashed cyan lines are simulations of the mechanism shown in f using the rate constants detailed herein. The concentrations in the simulations were multiplied by a correction factor of 0.925, which is well within the 90% purity specification of the purchased peptide.
LS complex was performed by incubating 1000 nM RPtag large with the indicated concentrations of rhodamine labeled RPtag small. At the start of the experiment, 0.1 mM unlabeled native RPtag small was added and fluorescence anisotropy monitored. Data processing was done as in panel a, except the red fits were to the single exponential decay equation y=y0+A*exp(−b*t). As expected, the initial dissociation rates were linear with respect to the LS complex.
Fitting to a line yields a rate constant (koff)=0.0091 min^−1 (FIG. 9 panel e). In good agreement, when the kinetics are fit with a first order rate law, a rate constant of 0.012±0.002 min^−1 (n=15) was observed. […] Panel e is a graph of the initial rates of the traces represented in d. Slope of the fit line is 0.0091 min^−1. Data are mean±SE (n=3).
The library of mutant RPtag(small) peptides, described above, was next analyzed to measure off rates (koff). The on rate was also calculated from measured koff and Kd (S*-LS transition), except instead of using unlabeled native peptide as the competitor, we used unlabeled Nd2,P5A,E18A (the tightest binding RPtag(small) peptide identified). […] However, there were notable exceptions. […]

Compound | Keq (S-S*)
CC[C@H](C)[C@H](NC(=O)[C@H](CC(C)C)NC(=O)[C@H](CCCCN)NC(=O)[C@H](CC(C)C)NC(=O)[C@H](CCC(=O)O)NC(=O)[C@H](C)NC(=O)[C@@H]1CCCN1C(=O)[C@@H](NC(=O)[C@H](Cc1ccccc1)NC(=O)[C@H](CC(N)=O)NC(=O)[C@@H]1CCCN1C(=O)[C@@H](NC(=O)[C@H](CCCCN)NC(=O)[C@H](CCC(=O)O)NC(=O)[C@H](C)N)[C@@H](C)CC)[C@@H](C)CC)C(=O)N[C@H](C(=O)N[C@@H](CCCCN)C(=O)N[C@@H](CCC(=O)O)C(=O)N[C@@H](CC(N)=O)C(=O)N[C@H](C(=O)N[C@@H](CCC(N)=O)C(=O)O)C(C)C)[C@@H](C)O [g1a] | 2.3 ± 0.1
KIANFIPAELKLITKANVQ [Nd2, p5a, e18a, KIANFIPAELKLITKANVQ] | 0.3 ± 0.1
GEKIPNFIPAELKLITKENV [Cd1] | 2.5 ± 0.3
